# Experimental data published in PMC7819943, “Rice protein-binding microarrays: a tool to detect cis-acting elements near promoter regions in rice”.
# The chains behind the UniProt entries cited, without tags or fusion partners.
# UniProt Q0JBA9, entry or part of it: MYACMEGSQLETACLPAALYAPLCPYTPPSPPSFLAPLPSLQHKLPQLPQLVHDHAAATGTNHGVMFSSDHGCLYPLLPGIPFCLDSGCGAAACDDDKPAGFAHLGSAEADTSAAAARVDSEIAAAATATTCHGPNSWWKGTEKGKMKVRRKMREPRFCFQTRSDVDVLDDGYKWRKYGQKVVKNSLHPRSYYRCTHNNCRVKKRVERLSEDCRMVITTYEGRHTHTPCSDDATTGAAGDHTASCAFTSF
# This is one part of the list.
# Biological target: OsWRKY34 (Oryza sativa, UniProt Q0JBA9 1-250)
# Assay: protein-binding microarray (RPBM); PBS, 2% BSA, 51.3 ng/ul salmon testes DNA, 50 uM zinc acetate, 200 nM TF, 25 C, 1 h; high values mean tight binding
# Settings: protein: recombinant; tags: N-terminal polyhistidine and DsRed monomer fusion (pET32a); label: CyDye5-dUTP incorporated in the synthesized complementary strand; 3' TTTTT single-stranded linker to array surface; dsDNA, one strand shown
# Method in brief: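 Using Ni–NTA, transcription factors fused N-terminally to polyhistidine and DsRed were purified after expression in E. coli BL21-CodonPlus. These were incubated at 200 nM with a blocked, double-stranded custom Agilent array for 1 h at 25 °C in a buffer containing 50 µM zinc acetate, and the array was washed. The binding signal is per-feature fluorescence intensity (arbitrary units) on an Axon 4000B scanner.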
row,Sequence,binding signal
1,CGTAGAAGGCACTACTCATTATCACCGCCTTTTACGTACCCGGAGTCACCTAGTGCAG,8480 fluorescence intensity (a.u.)
2,TTATAGTAGTTCTGTGTGTAGTTTTTTTTTCTTCTGACTCCGGAGTCACCTAGTGCAG,11000 fluorescence intensity (a.u.)
3,TTTTGCAATGTGATTTGCTGGTTTGGATAGTGGAGAAGTTCGGAGTCACCTAGTGCAG,8930 fluorescence intensity (a.u.)
4,CCCGCCGCCGTCCCCATCCCCAAGCTCGTTCAGCACCGTCCGGAGTCACCTAGTGCAG,8140 fluorescence intensity (a.u.)
5,TCCAATCAAACGACCATTCCTGTGTTTTGCAATCCTCTGTCGGAGTCACCTAGTGCAG,11300 fluorescence intensity (a.u.)
6,CTCTCTTCTATTCCTTGCTCTCCAGATCTCATCTCCCAGACGGAGTCACCTAGTGCAG,8100 fluorescence intensity (a.u.)
7,TAATCCCAAATCCTCTTATCCCTTTCCGGCGATTTCAATTCGGAGTCACCTAGTGCAG,9320 fluorescence intensity (a.u.)
8,TTCGTGTTCATCGCGTCGGGTCAAATCCCTCCTCTTCTTCCGGAGTCACCTAGTGCAG,9850 fluorescence intensity (a.u.)
9,AGTCTTCTTACTTTCATCTAAAACAGAGGTTCTTATGTTTCGGAGTCACCTAGTGCAG,8030 fluorescence intensity (a.u.)
10,CTCTCTTTTTCGCTTATTTTTTGCCTGTGTCAAATAACCACGGAGTCACCTAGTGCAG,9120 fluorescence intensity (a.u.)
11,CATCCCAAACACTGTAGGTTTTTTTTTTATTTGCTCTCTACGGAGTCACCTAGTGCAG,8400 fluorescence intensity (a.u.)
12,TTTGATACTGACCTTTCAATTTGTTTTATATTTAACTTAACGGAGTCACCTAGTGCAG,8920 fluorescence intensity (a.u.)
13,GTCAACACCGCCGCCACTGCACCGATTCTTCTTGAGAAGACGGAGTCACCTAGTGCAG,9820 fluorescence intensity (a.u.)
14,ACACACTGGCCACATCCAAACCGGTGACCAAGAAGCCAATCGGAGTCACCTAGTGCAG,8170 fluorescence intensity (a.u.)
15,TGCGTTGTGGGTGCTTGTGTCTGTTCTGTATTTATAAAAACGGAGTCACCTAGTGCAG,8750 fluorescence intensity (a.u.)
16,CCGTTACACCACCCGCCTCACGCCGTCACGTCAACTTCCGCGGAGTCACCTAGTGCAG,10900 fluorescence intensity (a.u.)
17,CAATGGAGTGAATCCTATCGTATCCTTTGAAATTTCTATACGGAGTCACCTAGTGCAG,8910 fluorescence intensity (a.u.)
18,CTAGCTTCGTCCTTCGTTGCTAATCCCAGCCAGTTAATCACGGAGTCACCTAGTGCAG,8060 fluorescence intensity (a.u.)
19,ATACGTCATTTGTATTTGAGTCGGTTTTTAAGTTCCTCCGCGGAGTCACCTAGTGCAG,12200 fluorescence intensity (a.u.)
20,CGTAGGCTGTCTCTTCTCAAGTTACACTCTACTGCCACGACGGAGTCACCTAGTGCAG,8290 fluorescence intensity (a.u.)
21,GGTGGTGGTGTGAGAGCAGTAGACAGGTTTTTCTTGGGGACGGAGTCACCTAGTGCAG,8280 fluorescence intensity (a.u.)

row,Sequence,binding signal
1,CCCCTTGAGCTTCCTAGAAGGTGCCAGGCGGTCGTATTCACGGAGTCACCTAGTGCAG,8430 fluorescence intensity (a.u.)
2,AATCCCCAATCTCTTGGCCAGCAGCCAGTTACATTTTTCACGGAGTCACCTAGTGCAG,8840 fluorescence intensity (a.u.)
3,GTGTCATCCCACCTGCCATTGCCCAGCAGACTCACTAGCACGGAGTCACCTAGTGCAG,8340 fluorescence intensity (a.u.)
4,GTCCCACGGCCTACCACCGCCCACCGATCGAAAACACAACCGGAGTCACCTAGTGCAG,9290 fluorescence intensity (a.u.)
5,ATGACATACTAATAGATGATACTATTGACTTTTTTTCTATCGGAGTCACCTAGTGCAG,9980 fluorescence intensity (a.u.)
6,GGCTCTCACCTCAAGCAAAGCTACCTCCATTCCATCGCTTCGGAGTCACCTAGTGCAG,9640 fluorescence intensity (a.u.)
7,ACCCTGTTTGCAGAAAGGCAATTTTCATTTCAACTTTCTTCGGAGTCACCTAGTGCAG,8480 fluorescence intensity (a.u.)
8,TTCAATCTGTTATTCTTGTGAGTTTAGTTAATTTTCAGTCCGGAGTCACCTAGTGCAG,8720 fluorescence intensity (a.u.)
9,GTGTATGTATATATGAGTATGTGTGTTTATATTGTATTTTCGGAGTCACCTAGTGCAG,8460 fluorescence intensity (a.u.)
10,CCACCACCACCACCACCACCACCGAACTCGATCCGCCATGCGGAGTCACCTAGTGCAG,10200 fluorescence intensity (a.u.)
11,GCTTCCGCCGACCGCCACCACTCTAGCCCTGCCGCTCCAGCGGAGTCACCTAGTGCAG,8280 fluorescence intensity (a.u.)
12,CTCCTCCATCCGTCCGTTGTGCCGCCGCCGCCATTGGTAGCGGAGTCACCTAGTGCAG,8340 fluorescence intensity (a.u.)
13,TTGTACTATATCCTAACGAGTTTTTGGTTCACACCTGTTTCGGAGTCACCTAGTGCAG,9760 fluorescence intensity (a.u.)
14,AGTTAGTTTCCTTCATCCATATAGTGTTAATCTGGATCTCCGGAGTCACCTAGTGCAG,13400 fluorescence intensity (a.u.)
15,TTTTCGTGGTTTCTCTGATTTTTTTTTTCGGGGAGTAGTTCGGAGTCACCTAGTGCAG,9210 fluorescence intensity (a.u.)
16,TATACTGCTGCTCCATTTGCCCTTAATTATGCTCTCTCAACGGAGTCACCTAGTGCAG,8760 fluorescence intensity (a.u.)
17,GAGAGGAGGAGGAGGAGGAGGGGATTCATTCACGTGGCTTCGGAGTCACCTAGTGCAG,8190 fluorescence intensity (a.u.)
18,CATCAGTCTGAAACCAAACATTTCTGTTTAACGTCAACCCCGGAGTCACCTAGTGCAG,8180 fluorescence intensity (a.u.)
19,AATTGCAATGCTTAGCTGCGTCACTGATTCAGAACATTCACGGAGTCACCTAGTGCAG,9760 fluorescence intensity (a.u.)
20,GTGCGTGCGACCCACTTCCCTCGACGATGGCGTGTACTTGCGGAGTCACCTAGTGCAG,8370 fluorescence intensity (a.u.)
21,CGCGTTGCCTCTCCGTCCTCTCCTCCGCAGCTTCCCAACTCGGAGTCACCTAGTGCAG,8960 fluorescence intensity (a.u.)

# As entered above.
# GAGAGGAGGAGGAGGAGGAGGGGATTCATTCACGTGGCTTCGGAGTCACCTAGTGCAG – binding signal: 8190 fluorescence intensity (a.u.)
# CCCCTTGAGCTTCCTAGAAGGTGCCAGGCGGTCGTATTCACGGAGTCACCTAGTGCAG – binding signal: 8430 fluorescence intensity (a.u.)
# GTCCCACGGCCTACCACCGCCCACCGATCGAAAACACAACCGGAGTCACCTAGTGCAG – binding signal: 9290 fluorescence intensity (a.u.)
